These are yes or no findings as the source states them, for the method shown. Binding seen in cells or lysates may run through a third protein. Some binding calls cover weakened binding; strength is not graded here.

Chains of the proteins cited; added tags and fusions are not shown.
UniProt Q61327: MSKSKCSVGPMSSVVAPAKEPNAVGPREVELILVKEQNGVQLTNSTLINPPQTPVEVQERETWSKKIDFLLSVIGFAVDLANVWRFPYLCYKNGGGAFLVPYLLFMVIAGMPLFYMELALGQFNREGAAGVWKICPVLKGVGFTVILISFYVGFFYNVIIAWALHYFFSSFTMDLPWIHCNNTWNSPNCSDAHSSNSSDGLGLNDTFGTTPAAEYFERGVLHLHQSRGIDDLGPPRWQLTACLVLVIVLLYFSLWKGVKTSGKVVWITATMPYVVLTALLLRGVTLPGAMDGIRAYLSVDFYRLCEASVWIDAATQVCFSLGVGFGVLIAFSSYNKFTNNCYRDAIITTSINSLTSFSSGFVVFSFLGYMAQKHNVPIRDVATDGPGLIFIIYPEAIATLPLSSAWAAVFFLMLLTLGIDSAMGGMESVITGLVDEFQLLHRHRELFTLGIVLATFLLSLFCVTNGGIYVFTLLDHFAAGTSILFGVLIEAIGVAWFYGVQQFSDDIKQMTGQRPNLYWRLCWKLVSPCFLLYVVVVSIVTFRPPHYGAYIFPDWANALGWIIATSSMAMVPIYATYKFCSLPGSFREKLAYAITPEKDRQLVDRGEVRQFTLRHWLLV

Assay [1] concerns the target dopamine transporter (mouse (endogenous in striatum)) (UniProt Q61327). The experiment in a line: co-IP.
Assay [2] addresses T1, Flotillin-1/Reggie-2 (mouse (endogenous in striatum)) (UniProt O08917).
T1 sequence: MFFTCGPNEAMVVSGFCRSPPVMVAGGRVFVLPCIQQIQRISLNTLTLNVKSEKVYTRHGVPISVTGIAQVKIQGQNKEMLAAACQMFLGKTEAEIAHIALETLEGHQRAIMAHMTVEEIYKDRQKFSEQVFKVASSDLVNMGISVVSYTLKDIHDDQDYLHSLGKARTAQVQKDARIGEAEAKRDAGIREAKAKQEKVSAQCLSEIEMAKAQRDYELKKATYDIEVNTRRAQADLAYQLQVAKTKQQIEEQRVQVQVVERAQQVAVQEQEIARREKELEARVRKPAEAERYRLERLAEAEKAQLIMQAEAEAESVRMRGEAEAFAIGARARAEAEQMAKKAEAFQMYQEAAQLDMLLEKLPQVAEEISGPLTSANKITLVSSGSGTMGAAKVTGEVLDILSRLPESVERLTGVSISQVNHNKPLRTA
Description: co-IP.

B1: Flotillin-1/Reggie-2 (protein, UniProt O08917 1-428)
chain: T1 sequence
In the case of B1, in assay [1], the binding result was “binds”.

B2: Flot2 (protein, UniProt Q60634 1-428)
chain: MGNCHTVGPNEALVVSGGCCGSDYKQYVFGGWAWAWWCISDTQRISLEIMTLQPRCEDVETAEGVALTVTGVAQVKIMTEKELLAVACEQFLGKNVQDIKNVVLQTLEGHLRSILGTLTVEQIYQDRDQFAKLVREVAAPDVGRMGIEILSFTIKDVYDKVDYLSSLGKTQTAVVQRDADIGVAEAERDAGIREAECKKEMLDVKFMADTKIADSKRAFELQKSAFSEEVNIKTAEAQLAYELQGAREQQKIRQEEIEIEVVQRKKQIAVEAQEILRTDKELIATVRRPAEAEAHRIQQIAEGEKVKQVLLAQAEAEKIRKIGEAEAAVIEAMGKAEAERMKLKAEAYQKYGDAAKMALVLEALPQIAAKISAPLTKVDEIVVLSGDNSKVTSEVNRLLAELPASVHALTGVDLSKIPLIKNATGAQV
In the case of B2, the binding entry in assay [2] and in assay [1] was “binds” each time.

Values taken from paper doi:10.1101/755819.
